Experimental data from paper PMC12711663.
No constants are given. Whether binding was seen depends on the method and setting. In cells and extracts the contact can be indirect. Some entries that bind do so weakly or less than the wild type.

Amino acid sequences for entries named in this document (tags omitted).
UniProt P42224: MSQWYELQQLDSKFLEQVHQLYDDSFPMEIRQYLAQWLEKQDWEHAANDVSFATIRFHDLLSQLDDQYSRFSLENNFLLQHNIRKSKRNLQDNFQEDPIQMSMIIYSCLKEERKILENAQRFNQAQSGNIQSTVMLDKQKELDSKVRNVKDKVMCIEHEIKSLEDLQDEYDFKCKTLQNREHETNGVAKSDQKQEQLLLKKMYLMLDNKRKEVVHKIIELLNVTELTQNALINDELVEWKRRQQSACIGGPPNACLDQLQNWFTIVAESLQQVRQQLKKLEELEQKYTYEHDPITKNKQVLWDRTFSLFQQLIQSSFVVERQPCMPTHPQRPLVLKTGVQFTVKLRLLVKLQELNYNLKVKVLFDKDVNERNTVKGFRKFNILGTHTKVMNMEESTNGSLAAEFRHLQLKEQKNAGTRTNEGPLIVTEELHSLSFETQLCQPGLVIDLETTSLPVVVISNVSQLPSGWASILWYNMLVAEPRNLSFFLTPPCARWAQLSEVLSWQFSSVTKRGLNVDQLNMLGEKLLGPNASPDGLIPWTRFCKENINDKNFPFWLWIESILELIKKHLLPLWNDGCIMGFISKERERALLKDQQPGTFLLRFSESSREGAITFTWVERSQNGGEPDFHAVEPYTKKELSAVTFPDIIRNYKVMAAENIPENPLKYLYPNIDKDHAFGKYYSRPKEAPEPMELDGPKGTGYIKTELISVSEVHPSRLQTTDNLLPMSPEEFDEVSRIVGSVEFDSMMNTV
UniProt Q92830: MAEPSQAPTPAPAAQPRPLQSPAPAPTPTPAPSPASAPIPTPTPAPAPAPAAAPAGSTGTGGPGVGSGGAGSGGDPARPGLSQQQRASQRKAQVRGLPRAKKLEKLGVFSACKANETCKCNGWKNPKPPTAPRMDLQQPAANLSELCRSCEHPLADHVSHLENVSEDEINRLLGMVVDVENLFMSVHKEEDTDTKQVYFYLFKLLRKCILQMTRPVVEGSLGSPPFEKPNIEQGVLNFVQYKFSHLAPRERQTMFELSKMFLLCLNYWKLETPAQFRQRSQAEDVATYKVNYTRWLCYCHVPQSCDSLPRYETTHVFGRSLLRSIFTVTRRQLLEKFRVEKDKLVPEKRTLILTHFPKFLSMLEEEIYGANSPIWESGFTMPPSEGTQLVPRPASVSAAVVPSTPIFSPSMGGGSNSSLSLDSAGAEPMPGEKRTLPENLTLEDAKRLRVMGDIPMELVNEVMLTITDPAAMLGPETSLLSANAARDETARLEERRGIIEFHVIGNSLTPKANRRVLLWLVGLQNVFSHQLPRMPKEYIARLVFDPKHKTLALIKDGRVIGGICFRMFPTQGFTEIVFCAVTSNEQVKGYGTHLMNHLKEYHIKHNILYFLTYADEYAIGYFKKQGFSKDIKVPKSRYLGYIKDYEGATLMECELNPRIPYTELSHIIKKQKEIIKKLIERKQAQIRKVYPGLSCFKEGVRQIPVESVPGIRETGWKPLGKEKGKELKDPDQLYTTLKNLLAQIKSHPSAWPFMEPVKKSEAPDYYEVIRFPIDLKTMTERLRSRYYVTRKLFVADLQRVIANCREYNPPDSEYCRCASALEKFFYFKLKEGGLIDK
UniProt Q92831: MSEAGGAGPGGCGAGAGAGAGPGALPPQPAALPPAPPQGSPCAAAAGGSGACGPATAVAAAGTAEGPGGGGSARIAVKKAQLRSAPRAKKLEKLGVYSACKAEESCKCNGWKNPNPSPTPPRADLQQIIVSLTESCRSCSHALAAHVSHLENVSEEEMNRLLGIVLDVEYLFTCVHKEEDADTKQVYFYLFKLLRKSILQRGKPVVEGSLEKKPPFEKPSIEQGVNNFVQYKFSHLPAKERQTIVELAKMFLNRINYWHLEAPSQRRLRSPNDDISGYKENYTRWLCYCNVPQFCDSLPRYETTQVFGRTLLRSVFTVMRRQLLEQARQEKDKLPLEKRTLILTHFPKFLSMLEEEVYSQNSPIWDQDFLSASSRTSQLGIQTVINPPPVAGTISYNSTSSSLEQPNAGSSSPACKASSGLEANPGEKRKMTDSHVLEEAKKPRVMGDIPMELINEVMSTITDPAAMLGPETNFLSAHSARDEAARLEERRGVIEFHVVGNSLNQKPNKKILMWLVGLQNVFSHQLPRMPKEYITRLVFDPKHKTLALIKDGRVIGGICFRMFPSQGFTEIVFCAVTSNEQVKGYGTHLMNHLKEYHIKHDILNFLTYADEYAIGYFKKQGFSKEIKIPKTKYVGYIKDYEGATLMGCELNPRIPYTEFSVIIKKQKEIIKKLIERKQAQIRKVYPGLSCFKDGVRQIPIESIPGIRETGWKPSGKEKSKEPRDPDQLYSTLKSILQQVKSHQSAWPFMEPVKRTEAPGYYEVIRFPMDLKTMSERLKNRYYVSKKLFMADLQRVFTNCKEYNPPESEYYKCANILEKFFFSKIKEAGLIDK

Legend:
[1] = target: STAT1 (wild-type, reconstituted in cetuximab-resistant cells) (human) (UniProt P42224); experiment: co-IP; lysates of CAL-27-Ctx^R-STAT1 and OECM-1-Ctx^R-STAT1 cells treated with MG132 (10 μM) for 16 h; Co-IP buffer 150 mM NaCl, 1% NP-40, 1 mM EDTA, 5% glycerol, 50 mM Tris-HCl pH 7.5, 4°C; western blot
endogenous STAT1 = endogenous STAT1 (UniProt P42224); experiment: co-IP; endogenous STAT1 and PCAF (Figure S6H); cells and bait not given

| Substance | binding [1] | binding (endogenous STAT1) |
| --- | --- | --- |
| GCN5 (from UniProt Q92830 1-837) (enzyme) | binds |  |
| PCAF (from UniProt Q92831 1-832) (enzyme) | binds | binds |
